The other results are listed elsewhere or left out.

Sequences of proteins named here, by UniProt entry; tags and fusion partners are left off. A change or cut given only in a name is not applied to a line headed by its entry.
UniProt Q9P2X0: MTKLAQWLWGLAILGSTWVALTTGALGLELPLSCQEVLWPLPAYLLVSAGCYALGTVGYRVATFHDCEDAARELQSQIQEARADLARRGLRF
UniProt O60869: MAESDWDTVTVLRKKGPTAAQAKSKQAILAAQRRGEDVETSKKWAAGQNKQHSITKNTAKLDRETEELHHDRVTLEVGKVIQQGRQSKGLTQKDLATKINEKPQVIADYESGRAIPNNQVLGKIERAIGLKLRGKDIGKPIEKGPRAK
UniProt Q7Z388: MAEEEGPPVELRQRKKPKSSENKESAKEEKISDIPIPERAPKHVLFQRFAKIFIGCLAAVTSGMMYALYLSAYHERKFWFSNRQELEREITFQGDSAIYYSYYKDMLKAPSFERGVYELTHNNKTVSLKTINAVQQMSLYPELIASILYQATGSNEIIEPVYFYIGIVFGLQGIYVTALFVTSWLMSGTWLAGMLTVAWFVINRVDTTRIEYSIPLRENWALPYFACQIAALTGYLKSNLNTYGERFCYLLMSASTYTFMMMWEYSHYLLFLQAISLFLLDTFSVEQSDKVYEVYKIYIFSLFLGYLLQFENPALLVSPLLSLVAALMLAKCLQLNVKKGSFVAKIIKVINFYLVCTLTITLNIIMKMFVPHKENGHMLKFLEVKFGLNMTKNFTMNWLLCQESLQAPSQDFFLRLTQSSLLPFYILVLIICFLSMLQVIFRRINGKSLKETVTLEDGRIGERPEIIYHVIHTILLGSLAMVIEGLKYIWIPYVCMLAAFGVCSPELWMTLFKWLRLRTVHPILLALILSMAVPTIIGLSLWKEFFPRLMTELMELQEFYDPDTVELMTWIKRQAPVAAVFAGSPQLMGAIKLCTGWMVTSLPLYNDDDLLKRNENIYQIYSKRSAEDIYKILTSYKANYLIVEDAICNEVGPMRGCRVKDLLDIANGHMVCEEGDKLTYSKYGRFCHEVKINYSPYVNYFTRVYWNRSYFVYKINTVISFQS
UniProt Q8WWZ3: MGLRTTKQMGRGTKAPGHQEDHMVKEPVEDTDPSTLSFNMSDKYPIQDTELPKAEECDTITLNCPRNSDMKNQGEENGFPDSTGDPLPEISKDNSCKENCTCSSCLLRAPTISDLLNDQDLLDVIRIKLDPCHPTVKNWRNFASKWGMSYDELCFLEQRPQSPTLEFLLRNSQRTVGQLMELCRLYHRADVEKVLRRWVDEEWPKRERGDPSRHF
UniProt O95620: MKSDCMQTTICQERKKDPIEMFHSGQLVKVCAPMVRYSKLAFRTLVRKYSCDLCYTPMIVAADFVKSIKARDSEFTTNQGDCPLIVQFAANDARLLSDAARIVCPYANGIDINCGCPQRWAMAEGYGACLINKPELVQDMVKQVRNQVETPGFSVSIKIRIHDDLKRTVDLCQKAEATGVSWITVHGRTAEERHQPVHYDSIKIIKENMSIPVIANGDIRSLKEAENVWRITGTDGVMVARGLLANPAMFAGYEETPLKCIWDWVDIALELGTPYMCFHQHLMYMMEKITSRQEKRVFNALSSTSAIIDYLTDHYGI
UniProt Q9BZG8: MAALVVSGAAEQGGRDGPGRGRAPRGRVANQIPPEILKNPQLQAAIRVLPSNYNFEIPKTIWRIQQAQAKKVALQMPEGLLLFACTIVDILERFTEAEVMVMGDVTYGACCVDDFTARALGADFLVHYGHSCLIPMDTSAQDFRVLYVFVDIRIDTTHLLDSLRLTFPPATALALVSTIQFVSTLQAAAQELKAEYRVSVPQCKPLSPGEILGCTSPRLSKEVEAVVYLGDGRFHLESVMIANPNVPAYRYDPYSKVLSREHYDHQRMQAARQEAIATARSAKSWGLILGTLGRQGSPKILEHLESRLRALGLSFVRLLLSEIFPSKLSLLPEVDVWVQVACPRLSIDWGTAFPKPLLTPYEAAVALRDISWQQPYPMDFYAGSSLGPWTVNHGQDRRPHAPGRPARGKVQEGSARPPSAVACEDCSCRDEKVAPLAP
UniProt Q9C005, whole entry, looked up: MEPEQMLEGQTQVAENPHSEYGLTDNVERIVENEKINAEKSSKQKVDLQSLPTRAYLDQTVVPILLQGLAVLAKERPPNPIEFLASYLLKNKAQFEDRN
UniProt P26358: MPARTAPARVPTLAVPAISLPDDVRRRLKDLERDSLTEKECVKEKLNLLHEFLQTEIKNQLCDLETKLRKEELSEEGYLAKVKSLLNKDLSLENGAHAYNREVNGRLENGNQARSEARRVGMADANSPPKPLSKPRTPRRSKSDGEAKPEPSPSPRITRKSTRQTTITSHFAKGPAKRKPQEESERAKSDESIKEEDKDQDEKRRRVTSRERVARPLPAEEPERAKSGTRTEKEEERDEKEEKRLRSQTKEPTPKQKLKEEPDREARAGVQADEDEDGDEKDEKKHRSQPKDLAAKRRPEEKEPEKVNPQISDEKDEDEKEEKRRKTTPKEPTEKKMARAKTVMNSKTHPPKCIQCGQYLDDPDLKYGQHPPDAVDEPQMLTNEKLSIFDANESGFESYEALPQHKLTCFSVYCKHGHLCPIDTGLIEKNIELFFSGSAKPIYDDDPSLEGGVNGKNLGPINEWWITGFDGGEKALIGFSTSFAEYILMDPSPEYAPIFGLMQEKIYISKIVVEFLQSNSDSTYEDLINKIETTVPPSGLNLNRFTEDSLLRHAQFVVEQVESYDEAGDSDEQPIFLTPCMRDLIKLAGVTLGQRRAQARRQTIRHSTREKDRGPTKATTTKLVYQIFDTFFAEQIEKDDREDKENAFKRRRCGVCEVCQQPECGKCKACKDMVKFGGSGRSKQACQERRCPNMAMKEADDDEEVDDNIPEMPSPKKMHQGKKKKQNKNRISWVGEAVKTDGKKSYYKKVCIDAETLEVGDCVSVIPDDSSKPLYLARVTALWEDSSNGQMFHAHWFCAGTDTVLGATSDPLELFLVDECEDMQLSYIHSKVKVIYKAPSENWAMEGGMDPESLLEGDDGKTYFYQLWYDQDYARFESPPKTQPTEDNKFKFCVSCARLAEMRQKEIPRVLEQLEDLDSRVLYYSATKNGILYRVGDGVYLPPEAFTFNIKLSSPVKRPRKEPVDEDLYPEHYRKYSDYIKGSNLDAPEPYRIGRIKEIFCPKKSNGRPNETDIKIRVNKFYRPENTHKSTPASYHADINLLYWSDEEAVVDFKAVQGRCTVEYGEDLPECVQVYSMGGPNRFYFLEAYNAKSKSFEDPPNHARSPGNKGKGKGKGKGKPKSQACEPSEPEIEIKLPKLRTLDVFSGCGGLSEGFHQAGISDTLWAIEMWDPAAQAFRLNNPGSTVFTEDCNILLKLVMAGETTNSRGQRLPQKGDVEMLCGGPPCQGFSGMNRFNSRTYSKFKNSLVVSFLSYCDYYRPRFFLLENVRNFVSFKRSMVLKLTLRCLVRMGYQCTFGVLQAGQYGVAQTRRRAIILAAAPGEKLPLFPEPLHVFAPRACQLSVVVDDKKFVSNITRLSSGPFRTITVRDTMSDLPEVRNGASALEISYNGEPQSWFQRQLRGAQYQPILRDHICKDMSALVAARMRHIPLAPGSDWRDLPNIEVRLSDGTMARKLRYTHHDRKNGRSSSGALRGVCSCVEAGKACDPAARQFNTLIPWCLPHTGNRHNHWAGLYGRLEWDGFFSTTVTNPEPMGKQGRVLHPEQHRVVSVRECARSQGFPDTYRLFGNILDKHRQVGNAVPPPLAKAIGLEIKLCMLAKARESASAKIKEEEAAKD
UniProt Q13217: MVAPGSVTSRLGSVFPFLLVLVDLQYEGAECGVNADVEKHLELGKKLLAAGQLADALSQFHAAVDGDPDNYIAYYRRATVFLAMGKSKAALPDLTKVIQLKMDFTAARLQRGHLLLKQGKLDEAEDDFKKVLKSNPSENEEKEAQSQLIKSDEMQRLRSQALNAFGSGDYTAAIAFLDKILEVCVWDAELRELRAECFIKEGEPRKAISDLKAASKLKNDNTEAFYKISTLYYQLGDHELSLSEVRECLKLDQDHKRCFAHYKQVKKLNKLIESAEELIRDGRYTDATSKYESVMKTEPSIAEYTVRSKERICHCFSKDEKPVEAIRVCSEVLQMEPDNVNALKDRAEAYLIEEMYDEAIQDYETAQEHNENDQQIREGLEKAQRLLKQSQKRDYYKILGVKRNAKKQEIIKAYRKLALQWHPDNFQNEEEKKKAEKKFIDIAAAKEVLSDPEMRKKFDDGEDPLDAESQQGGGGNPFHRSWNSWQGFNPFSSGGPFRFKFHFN
UniProt Q14126: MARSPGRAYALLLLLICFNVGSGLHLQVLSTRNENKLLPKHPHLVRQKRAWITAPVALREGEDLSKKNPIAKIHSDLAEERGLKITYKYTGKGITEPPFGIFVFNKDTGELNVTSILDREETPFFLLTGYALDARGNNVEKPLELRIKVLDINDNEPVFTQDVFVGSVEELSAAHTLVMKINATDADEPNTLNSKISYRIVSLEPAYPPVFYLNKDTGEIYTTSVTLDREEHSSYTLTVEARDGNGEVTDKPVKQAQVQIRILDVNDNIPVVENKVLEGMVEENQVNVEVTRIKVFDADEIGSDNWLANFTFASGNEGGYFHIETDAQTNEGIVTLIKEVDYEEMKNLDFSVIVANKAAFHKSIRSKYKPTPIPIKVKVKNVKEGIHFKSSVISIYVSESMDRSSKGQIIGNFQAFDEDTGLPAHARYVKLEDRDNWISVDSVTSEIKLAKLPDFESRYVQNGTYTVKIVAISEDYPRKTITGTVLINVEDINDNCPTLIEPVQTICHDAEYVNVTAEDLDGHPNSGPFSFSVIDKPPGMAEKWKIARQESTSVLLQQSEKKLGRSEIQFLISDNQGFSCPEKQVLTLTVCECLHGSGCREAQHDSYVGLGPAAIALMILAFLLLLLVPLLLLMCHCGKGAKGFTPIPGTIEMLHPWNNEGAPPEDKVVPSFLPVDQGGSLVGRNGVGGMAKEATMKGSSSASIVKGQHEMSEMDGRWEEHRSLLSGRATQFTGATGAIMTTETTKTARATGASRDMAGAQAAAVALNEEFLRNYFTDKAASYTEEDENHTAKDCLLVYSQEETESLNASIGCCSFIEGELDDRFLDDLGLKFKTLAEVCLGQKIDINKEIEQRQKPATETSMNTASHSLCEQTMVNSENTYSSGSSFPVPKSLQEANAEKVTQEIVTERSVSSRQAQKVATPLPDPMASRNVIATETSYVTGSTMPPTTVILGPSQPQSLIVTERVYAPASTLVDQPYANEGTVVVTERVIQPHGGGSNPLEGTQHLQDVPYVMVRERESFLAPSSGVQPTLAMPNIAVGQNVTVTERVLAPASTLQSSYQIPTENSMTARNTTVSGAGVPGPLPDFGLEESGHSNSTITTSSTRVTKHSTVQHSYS
UniProt P42126: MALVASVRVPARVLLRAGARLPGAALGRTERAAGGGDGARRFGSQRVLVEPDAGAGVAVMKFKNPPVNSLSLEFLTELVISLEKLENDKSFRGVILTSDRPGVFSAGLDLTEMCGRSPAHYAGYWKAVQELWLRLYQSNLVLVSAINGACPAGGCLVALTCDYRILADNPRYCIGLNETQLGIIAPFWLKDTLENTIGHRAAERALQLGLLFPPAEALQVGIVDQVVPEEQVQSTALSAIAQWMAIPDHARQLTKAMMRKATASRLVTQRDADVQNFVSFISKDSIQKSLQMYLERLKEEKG
UniProt Q9Y295: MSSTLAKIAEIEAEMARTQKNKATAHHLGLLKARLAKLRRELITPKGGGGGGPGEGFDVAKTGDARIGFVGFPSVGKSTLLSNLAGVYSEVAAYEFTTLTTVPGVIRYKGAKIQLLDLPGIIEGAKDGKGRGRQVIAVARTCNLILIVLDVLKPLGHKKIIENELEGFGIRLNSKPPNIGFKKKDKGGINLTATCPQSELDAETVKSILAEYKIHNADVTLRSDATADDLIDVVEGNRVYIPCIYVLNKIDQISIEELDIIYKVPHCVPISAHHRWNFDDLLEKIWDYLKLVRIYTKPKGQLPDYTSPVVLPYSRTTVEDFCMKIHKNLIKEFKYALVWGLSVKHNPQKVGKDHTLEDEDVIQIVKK
UniProt Q9Y6G9, whole entry, looked up: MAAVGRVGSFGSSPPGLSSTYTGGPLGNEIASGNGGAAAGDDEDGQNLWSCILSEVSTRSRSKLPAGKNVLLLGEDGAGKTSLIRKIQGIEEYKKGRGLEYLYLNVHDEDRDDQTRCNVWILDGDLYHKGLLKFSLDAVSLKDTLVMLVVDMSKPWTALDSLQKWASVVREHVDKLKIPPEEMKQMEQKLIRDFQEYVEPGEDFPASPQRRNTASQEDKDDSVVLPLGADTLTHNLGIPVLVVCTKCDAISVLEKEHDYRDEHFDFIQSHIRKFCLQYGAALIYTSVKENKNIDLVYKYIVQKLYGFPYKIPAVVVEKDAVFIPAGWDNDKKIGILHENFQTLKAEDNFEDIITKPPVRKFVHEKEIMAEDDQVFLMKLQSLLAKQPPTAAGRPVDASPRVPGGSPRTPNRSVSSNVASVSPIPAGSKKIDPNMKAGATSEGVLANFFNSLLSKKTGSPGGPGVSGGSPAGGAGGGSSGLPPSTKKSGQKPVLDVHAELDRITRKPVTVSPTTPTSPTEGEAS

Compound in one test: CC1=C(C=C(C=C1)NC(=O)C2=CC(=CC=C2)N(C)C)NC(=O)C3=CC=C(C=C3)O
In words: log2 fold change, soluble protein after heating vs DMSO (PISA); higher = thermal stabilisation; K562 cells, 10 uM, 30 min; active = over 0.2 and 3.5 SD of the protein, either way, in both replicates (recomputed). The gist of the method: (§1)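 K562 cells at 2×10^6 cells/mL were treated with 10 μM compound for 30 min. Aliquots were heated for 3 min across 48°C-58°C, pooled, and extracted in PBS with 0.5% NP-40 at 4°C; soluble protein was the supernatant after 21,000xg for 90 min. Soluble protein was quantified by TMTpro 16plex LC-MS/MS with channel sums equalised, and reported as log2 fold change in thermal stability against DMSO controls, with values from duplicates.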
With ECHDC1 (UniProt Q9NTX5), the log2 fold change is inactive: -0.006.

As to DNAJA3 (UniProt Q96EY1), the log2 fold change was inactive: 0.054.

DPH7 (UniProt Q9BTV6): the log2 fold change is inactive: 0.062.

Regarding DPM3 isoform 2 (UniProt Q9P2X0), the log2 fold change was inactive: -0.011.

Consider EARS2 isoform 2 (UniProt Q5JPH6), for which the log2 fold change was inactive: -0.181.

In the case of DST (UniProt Q03001), the log2 fold change was inactive: 0.02.

For the target DPM1 (UniProt O60762), the log2 fold change was inactive: 0.031.

Consider ECE1 (UniProt P42892), for which the log2 fold change was inactive: 0.

Regarding EDF1 (UniProt O60869), the log2 fold change was inactive: -0.018.

Regarding DPY19L4 (UniProt Q7Z388), the log2 fold change is inactive: -0.075.

As for DNAJB6 (UniProt O75190), the log2 fold change is inactive: 0.017.

With EDEM1 (UniProt Q92611), the log2 fold change is inactive: 0.02.

As for DNAJB4 (UniProt Q9UDY4), the log2 fold change is inactive: -0.034.

EBP (UniProt Q15125): the log2 fold change is inactive: -0.056.

Take DUT (UniProt P33316): the log2 fold change was inactive: -0.019.

As to DPF2 (UniProt Q92785), the log2 fold change is inactive: 0.033.

As to EDARADD (UniProt Q8WWZ3), the log2 fold change is inactive: 0.015.

With DUS4L (UniProt O95620), the log2 fold change was inactive: 0.036.

As to DR1 (UniProt Q01658), the log2 fold change is inactive: -0.005.

Turning to DUSP12 (UniProt Q9UNI6), the log2 fold change is inactive: -0.049.

EAF1 (UniProt Q96JC9): the log2 fold change is inactive: 0.003.

As to DPH1 (UniProt Q9BZG8), the log2 fold change was inactive: 0.016.

Regarding DPY30 (UniProt Q9C005), the log2 fold change is inactive: -0.029.

Turning to DNMT1 isoform 2 (UniProt P26358), the log2 fold change was inactive: -0.016.

On to DNAJC3 (UniProt Q13217), for which the log2 fold change was inactive: -0.01.

Turning to DSG2 (UniProt Q14126), the log2 fold change is inactive: 0.

On to ECI1 (UniProt P42126), for which the log2 fold change was inactive: 0.024.

For the target DRG1 (UniProt Q9Y295), the log2 fold change was inactive: -0.02.

DSTN (UniProt P60981): the log2 fold change was inactive: -0.029.

As for DOCK9 isoform 4 (UniProt Q9BZ29), the log2 fold change was inactive: -0.051.

Consider DPH2 (UniProt Q9BQC3), for which the log2 fold change was inactive: 0.031.

As to DSC2 (UniProt Q02487), the log2 fold change is inactive: 0.

In the case of DYNC1LI1 (UniProt Q9Y6G9), the log2 fold change is inactive: -0.023.

For ECM1 isoform 4 (UniProt Q16610), the log2 fold change is inactive: -0.018.

Compound in another test: CC1=CC=C(C=C1)SC2=C3C=C(SC3=CN=C2)C(=O)N
The test is described as above. The gist of the method: as §1
On to ECHDC1 (UniProt Q9NTX5), for which the log2 fold change is inactive: -0.022.

DNAJA3 (UniProt Q96EY1): the log2 fold change is inactive: 0.009.

For the target DPH7 (UniProt Q9BTV6), the log2 fold change is inactive: -0.009.

With DPM3 isoform 2 (UniProt Q9P2X0), the log2 fold change is inactive: -0.151.

On to EARS2 isoform 2 (UniProt Q5JPH6), for which the log2 fold change was inactive: 0.05.

Regarding DST (UniProt Q03001), the log2 fold change was inactive: -0.048.

As for DPM1 (UniProt O60762), the log2 fold change was inactive: -0.004.

On to ECE1 (UniProt P42892), for which the log2 fold change was inactive: 0.022.

For EDF1 (UniProt O60869), the log2 fold change was inactive: 0.002.

On to DPY19L4 (UniProt Q7Z388), for which the log2 fold change is inactive: -0.152.

As to DNAJB6 (UniProt O75190), the log2 fold change was inactive: 0.006.

With EDEM1 (UniProt Q92611), the log2 fold change is inactive: -0.01.

Take DNAJB4 (UniProt Q9UDY4): the log2 fold change was inactive: 0.018.

Turning to EBP (UniProt Q15125), the log2 fold change is inactive: 0.049.

In the case of DUT (UniProt P33316), the log2 fold change is inactive: 0.038.

In the case of DPF2 (UniProt Q92785), the log2 fold change was inactive: -0.003.

On to EDARADD (UniProt Q8WWZ3), for which the log2 fold change was inactive: 0.009.

DUS4L (UniProt O95620): the log2 fold change was inactive: -0.048.

Consider DR1 (UniProt Q01658), for which the log2 fold change is inactive: 0.052.

Take DUSP12 (UniProt Q9UNI6): the log2 fold change is inactive: 0.01.

For the target EAF1 (UniProt Q96JC9), the log2 fold change is inactive: -0.039.

With DPH1 (UniProt Q9BZG8), the log2 fold change is inactive: 0.012.

Consider DPY30 (UniProt Q9C005), for which the log2 fold change is inactive: -0.1.

Turning to DNMT1 isoform 2 (UniProt P26358), the log2 fold change is inactive: 0.007.

Take DNAJC3 (UniProt Q13217): the log2 fold change was inactive: -0.018.

As to DSG2 (UniProt Q14126), the log2 fold change was inactive: -0.012.

In the case of ECI1 (UniProt P42126), the log2 fold change was inactive: 0.008.

DRG1 (UniProt Q9Y295): the log2 fold change is inactive: -0.043.

With DSTN (UniProt P60981), the log2 fold change is inactive: 0.002.

Take DOCK9 isoform 4 (UniProt Q9BZ29): the log2 fold change is inactive: 0.017.

For DPH2 (UniProt Q9BQC3), the log2 fold change is inactive: 0.008.

Consider DSC2 (UniProt Q02487), for which the log2 fold change is inactive: -0.068.

For the target DYNC1LI1 (UniProt Q9Y6G9), the log2 fold change was inactive: -0.02.

For the target ECM1 isoform 4 (UniProt Q16610), the log2 fold change was inactive: -0.029.

Compound in a further test: CC1=NC(=CC=C1)C2=C(N=C(N2)C(C)(C)C)C3=CC4=NC=CN=C4C=C3
The description is as above. The gist of the method: as §1
Regarding ECHDC1 (UniProt Q9NTX5), the log2 fold change was inactive: -0.022.

With DNAJA3 (UniProt Q96EY1), the log2 fold change is inactive: -0.018.

As for DPH7 (UniProt Q9BTV6), the log2 fold change was inactive: 0.007.

In the case of DPM3 isoform 2 (UniProt Q9P2X0), the log2 fold change was inactive: 0.089.

Turning to EARS2 isoform 2 (UniProt Q5JPH6), the log2 fold change is inactive: 0.064.

Take DST (UniProt Q03001): the log2 fold change is inactive: -0.097.

Turning to DPM1 (UniProt O60762), the log2 fold change is inactive: 0.031.

ECE1 (UniProt P42892): the log2 fold change is inactive: -0.003.

Regarding EDF1 (UniProt O60869), the log2 fold change is inactive: 0.039.

Turning to DPY19L4 (UniProt Q7Z388), the log2 fold change was inactive: -0.094.

As for DNAJB6 (UniProt O75190), the log2 fold change is inactive: -0.042.

EDEM1 (UniProt Q92611): the log2 fold change was inactive: -0.275.

In the case of DNAJB4 (UniProt Q9UDY4), the log2 fold change was inactive: 0.005.

Turning to EBP (UniProt Q15125), the log2 fold change is inactive: 0.007.

Turning to DUT (UniProt P33316), the log2 fold change was inactive: 0.055.

As for DPF2 (UniProt Q92785), the log2 fold change is inactive: 0.043.

For the target EDARADD (UniProt Q8WWZ3), the log2 fold change was inactive: 0.005.

For DUS4L (UniProt O95620), the log2 fold change is inactive: -0.009.

As to DR1 (UniProt Q01658), the log2 fold change is inactive: 0.027.

For DUSP12 (UniProt Q9UNI6), the log2 fold change was inactive: 0.066.

As to EAF1 (UniProt Q96JC9), the log2 fold change is inactive: -0.014.

Regarding DPH1 (UniProt Q9BZG8), the log2 fold change is inactive: 0.054.

Regarding DPY30 (UniProt Q9C005), the log2 fold change was inactive: 0.36.

Regarding DNMT1 isoform 2 (UniProt P26358), the log2 fold change is inactive: 0.044.

Turning to DNAJC3 (UniProt Q13217), the log2 fold change is inactive: -0.005.

DSG2 (UniProt Q14126): the log2 fold change was inactive: 0.

Regarding ECI1 (UniProt P42126), the log2 fold change was inactive: 0.005.

With DRG1 (UniProt Q9Y295), the log2 fold change is inactive: -0.023.

As for DSTN (UniProt P60981), the log2 fold change was inactive: 0.025.

Take DOCK9 isoform 4 (UniProt Q9BZ29): the log2 fold change is inactive: 0.003.

For DPH2 (UniProt Q9BQC3), the log2 fold change is inactive: 0.037.

DSC2 (UniProt Q02487): the log2 fold change was inactive: -0.13.

Turning to DYNC1LI1 (UniProt Q9Y6G9), the log2 fold change is inactive: -0.012.

Regarding ECM1 isoform 4 (UniProt Q16610), the log2 fold change is inactive: 0.021.

The record behind these values is the supplement of paper PMC10849652.
